The values that follow come from article PMC4279437.

Protein sequences, listed by entry. Tags and fused reporters are not part of them. Lines headed by an entry give the natural chain unless they say otherwise; changes in a name come on top. Residues count along the entry.
UniProt Q6R327: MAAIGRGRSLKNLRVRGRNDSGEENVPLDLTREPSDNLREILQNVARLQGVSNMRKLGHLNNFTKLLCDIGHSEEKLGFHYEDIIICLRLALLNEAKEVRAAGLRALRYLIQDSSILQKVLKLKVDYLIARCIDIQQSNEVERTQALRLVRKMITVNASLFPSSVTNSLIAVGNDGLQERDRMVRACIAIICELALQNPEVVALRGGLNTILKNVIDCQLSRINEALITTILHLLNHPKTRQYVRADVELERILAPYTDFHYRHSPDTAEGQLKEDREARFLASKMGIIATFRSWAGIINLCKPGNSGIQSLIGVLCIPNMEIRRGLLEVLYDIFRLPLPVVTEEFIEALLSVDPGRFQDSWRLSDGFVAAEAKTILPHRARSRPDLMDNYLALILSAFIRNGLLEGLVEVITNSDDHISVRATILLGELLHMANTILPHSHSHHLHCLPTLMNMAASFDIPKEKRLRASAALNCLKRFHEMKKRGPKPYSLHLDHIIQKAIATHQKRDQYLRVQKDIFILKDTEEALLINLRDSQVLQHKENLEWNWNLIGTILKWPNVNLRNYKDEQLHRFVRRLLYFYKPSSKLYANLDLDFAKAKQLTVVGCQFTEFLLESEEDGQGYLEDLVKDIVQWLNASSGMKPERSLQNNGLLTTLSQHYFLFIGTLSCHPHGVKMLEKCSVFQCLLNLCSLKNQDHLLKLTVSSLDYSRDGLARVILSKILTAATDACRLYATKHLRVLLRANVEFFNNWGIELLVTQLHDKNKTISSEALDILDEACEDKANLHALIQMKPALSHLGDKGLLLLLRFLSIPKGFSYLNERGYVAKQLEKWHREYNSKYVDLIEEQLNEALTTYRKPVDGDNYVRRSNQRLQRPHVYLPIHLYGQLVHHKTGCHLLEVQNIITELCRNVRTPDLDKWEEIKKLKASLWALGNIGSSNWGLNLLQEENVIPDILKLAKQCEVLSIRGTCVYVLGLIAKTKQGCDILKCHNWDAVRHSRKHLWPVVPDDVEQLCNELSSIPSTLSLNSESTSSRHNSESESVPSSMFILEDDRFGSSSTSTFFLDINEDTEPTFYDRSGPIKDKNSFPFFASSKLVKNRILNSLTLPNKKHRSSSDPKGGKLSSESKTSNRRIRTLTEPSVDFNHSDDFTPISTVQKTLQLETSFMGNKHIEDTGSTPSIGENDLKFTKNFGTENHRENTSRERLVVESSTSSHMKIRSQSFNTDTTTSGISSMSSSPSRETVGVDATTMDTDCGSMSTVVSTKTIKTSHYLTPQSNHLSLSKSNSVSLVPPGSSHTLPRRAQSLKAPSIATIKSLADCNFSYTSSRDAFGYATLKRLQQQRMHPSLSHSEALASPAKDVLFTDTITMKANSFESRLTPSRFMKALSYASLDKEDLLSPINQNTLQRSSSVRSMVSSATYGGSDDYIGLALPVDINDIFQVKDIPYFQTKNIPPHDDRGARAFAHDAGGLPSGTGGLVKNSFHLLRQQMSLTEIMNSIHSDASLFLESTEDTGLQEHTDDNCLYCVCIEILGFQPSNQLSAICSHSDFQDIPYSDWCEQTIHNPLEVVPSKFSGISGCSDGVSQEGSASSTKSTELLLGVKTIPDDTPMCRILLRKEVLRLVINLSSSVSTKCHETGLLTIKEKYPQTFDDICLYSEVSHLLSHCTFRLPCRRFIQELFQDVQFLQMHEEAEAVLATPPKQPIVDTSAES
Gal4DBD fusion of the interacting domain of Rictor (a.a. 50-101): residues 50-101 of Q6R327
UniProt Q8N122: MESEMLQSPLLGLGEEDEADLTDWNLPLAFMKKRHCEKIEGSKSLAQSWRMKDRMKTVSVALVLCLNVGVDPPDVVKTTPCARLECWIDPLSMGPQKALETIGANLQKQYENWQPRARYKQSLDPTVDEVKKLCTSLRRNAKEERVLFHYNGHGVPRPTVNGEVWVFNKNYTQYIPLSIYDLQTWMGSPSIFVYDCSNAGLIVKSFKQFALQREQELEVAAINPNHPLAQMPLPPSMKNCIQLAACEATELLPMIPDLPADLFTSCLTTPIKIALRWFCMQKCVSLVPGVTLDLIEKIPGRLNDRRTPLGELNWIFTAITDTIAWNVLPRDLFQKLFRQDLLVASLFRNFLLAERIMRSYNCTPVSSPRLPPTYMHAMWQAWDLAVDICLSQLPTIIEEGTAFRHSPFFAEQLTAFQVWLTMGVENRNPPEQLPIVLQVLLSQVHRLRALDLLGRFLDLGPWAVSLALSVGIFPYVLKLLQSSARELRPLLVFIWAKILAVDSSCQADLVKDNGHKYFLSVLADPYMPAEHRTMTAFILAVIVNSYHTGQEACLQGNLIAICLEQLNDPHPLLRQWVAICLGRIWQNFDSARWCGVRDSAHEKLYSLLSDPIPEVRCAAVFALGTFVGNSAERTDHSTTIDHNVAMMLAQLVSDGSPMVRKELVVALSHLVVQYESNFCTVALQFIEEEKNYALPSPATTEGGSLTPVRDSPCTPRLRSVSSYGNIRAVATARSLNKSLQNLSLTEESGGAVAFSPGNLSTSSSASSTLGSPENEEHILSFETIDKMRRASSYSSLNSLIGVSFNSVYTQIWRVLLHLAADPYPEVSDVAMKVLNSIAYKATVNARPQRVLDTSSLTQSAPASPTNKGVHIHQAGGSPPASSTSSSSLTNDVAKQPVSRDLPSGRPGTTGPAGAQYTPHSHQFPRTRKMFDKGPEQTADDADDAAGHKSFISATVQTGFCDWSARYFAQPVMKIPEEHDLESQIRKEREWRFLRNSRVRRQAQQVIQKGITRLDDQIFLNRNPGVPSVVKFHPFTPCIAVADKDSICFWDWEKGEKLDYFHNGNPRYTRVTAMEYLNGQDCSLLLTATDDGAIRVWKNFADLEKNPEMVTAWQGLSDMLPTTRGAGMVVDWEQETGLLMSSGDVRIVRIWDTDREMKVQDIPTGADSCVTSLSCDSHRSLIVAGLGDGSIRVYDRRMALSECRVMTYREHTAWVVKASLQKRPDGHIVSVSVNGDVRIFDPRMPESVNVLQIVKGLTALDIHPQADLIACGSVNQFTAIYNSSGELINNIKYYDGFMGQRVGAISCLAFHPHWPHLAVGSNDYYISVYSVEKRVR

Assay [1] concerns the target Gal4DBD fusion of the interacting domain of Rictor (a.a. 50-101) (human) (UniProt Q6R327). Description: two-hybrid; defined Gal4DBD-Rictor and Gal4AD-DUSP10 constructs (full length, deletion mutants, interacting domains alone) introduced into AH109; growth on selective media (HIS3 reporter) and liquid β-galactosidase assays.
For assay [2], the target named is GAL4DBD-Rictor fusion (full-length human Rictor) (human) (UniProt Q6R327). Described as above.
For assay [3], the target named is endogenous Raptor (U87 cells) (human (endogenous in U87)) (UniProt Q8N122). Description: co-IP; endogenous Rictor, Raptor or DUSP10 immunoprecipitated from U87 cells, Western analysis of precipitates; controls: beads without antibody, control IgG.
The target of assay [4] is endogenous Rictor (U87 cells) (human (endogenous in U87)) (UniProt Q6R327). The assay is described as above.

These are yes or no findings as the source states them, for the method shown. For some of these results: Binding seen in cells or lysates may run through a third protein. Some entries that bind do so weakly or less than the wild type. For some of these results: Where a sequence is shown, tags or fusion partners need not be part of it.

With TTTTAIGTSTTCPANQMVNNNENTGSLSPSSGVGSPVSGTPKQLAS (domain or fragment, UniProt Q9Y6W6-1 101-146) [Gal4AD fusion of the interacting domain of DUSP10 (a.a. 101-146)], the binding result in assay [1] is reported as “binds”.

B1: full-length DUSP10-AD fusion (protein, UniProt Q9Y6W6-1 1-482)
chain: MPPSPLDDRVVVALSRPVRPQDLNLCLDSSYLGSANPGSNSHPPVIATTVVSLKAANLTYMPSSSGSARSLNCGCSSASCCTVATYDKDNQAQTQAIAAGTTTTAIGTSTTCPANQMVNNNENTGSLSPSSGVGSPVSGTPKQLASIKIIYPNDLAKKMTKCSKSHLPSQGPVIIDCRPFMEYNKSHIQGAVHINCADKISRRRLQQGKITVLDLISCREGKDSFKRIFSKEIIVYDENTNEPSRVMPSQPLHIVLESLKREGKEPLVLKGGLSSFKQNHENLCDNSLQLQECREVGGGASAASSLLPQPIPTTPDIENAELTPILPFLFLGNEQDAQDLDTMQRLNIGYVINVTTHLPLYHYEKGLFNYKRLPATDSNKQNLRQYFEEAFEFIEEAHQCGKGLLIHCQAGVSRSATIVIAYLMKHTRMTMTDAYKFVKGKRPIISPNLNFMGQLLEFEEDLNNGVTPRILTPKLMGVETVV
Consider B1, for which the binding result in assay [2] is reported as “binds”.

B2: endogenous DUSP10 (U87 cells) (protein, UniProt Q9Y6W6-1 1-482)
chain: B1 chain
As to B2, the binding result in assay [3] is listed as “no binding”; in assay [4], “binds”.
